# Source: US20030031650A1 (priority 1999, published 2003)
# For at least one compound, name, drawing or mass did not settle the structure.
# Columns and labels:
# [1] = test system: vSINGRE5-transduced HeLa cells; assay: Glucocorticoid induction assay: GFP reporter expression by flow cytometry in vSINGRE5-transduced HeLa cells; format: cell-based, human
# vSINGRE5-HeLa cells = assay: Northern blot analysis of retrovector mRNA in vSINGRE5-HeLa cells after dexamethasone exposure and withdrawal; format: cell-based, human
# Protocol: In dexamethasone-free media, retroviral mRNA levels in vSINGRE5-HeLa cells was below the detection threshold of our assay.
# Southern blot analysis was performed on 15 μg of overnight KpnI digested genomic DNA extracted from stably transduced cells as well as untransduced control cells. Blots were hybridized with P^32 labeled cDNA probes as depicted in FIG. 2, washed and exposed on photographic film. Northern blot analysis was performed on 15 μg total RNA extracted using TRIZOL reagent (Gibco, BRL) from stably transduced cells as well as untransduced control cells. Blots were hybridized with p^32 labeled cDNA probes as depicted in FIG. 6, washed and exposed on photographic film.
# [2] = test system: vSINGRE5-transduced rat marrow stroma; assay: Flow cytometry for GFP expression by vSINGRE5-transduced bone marrow stromal cells; format: cell-based
# Protocol: Rat marrow stroma was transduced with one application of vSINGRE5 at a final MOI of 12.
# One male inbred Lewis rat (˜200 g) (Charles River Laboratory, Laprairie Company, PQ) was sacrificed by isofluorane inhalation and the hind legs femurs and tibias isolated. Whole marrow was harvested by flushing these bones with DMEM supplemented with 10% FBS and 1% Pen/Strep, and placed in three 150 cm^2 tissue culture flasks. Following 7 days incubation at 37° C. with 5% CO2, the non-adherent hematopoietic cells were discarded and the adherent bone marrow stromal cells allowed to expand for an additional 14 days. The rat stromal cells were then plated at a density of 2.5×10^4 cells per well of a 6-well plate. The next day, media was removed from each well and replaced with 1 ml of media containing 3×10^5 cfu of thawed vSINGRE5 retrovirus (final MOI of 12) and 6 μg/ml […] (Gibco, BRL). Stromal cells were also transduced with vLTRGFP retroviral particles at a final MOI of 50 for two consecutive days in the presence of 6 μg/ml polybrene. […] Flow cytometric analysis to assess GFP fluorescence was performed as described above.
# [3] = 250 ηM dexamethasone, vSINGRE5-HeLa
# [4] = after addition of 250 ηM dexamethasone
structure (smiles),measurement,setting,value
C[C@@H]1C[C@H]2[C@@H]3CCC4=CC(=O)C=C[C@]4(C)[C@@]3(F)[C@@H](O)C[C@]2(C)[C@@]1(O)C(=O)CO [dexamethasone],time at which GFP expression was detectable after drug exposure,[1]; [3],24 h
same,time of maximal GFP reporter induction after drug exposure,[1]; [3],72 h
same,time to return of GFP reporter expression to baseline after dexamethasone withdrawal,[1]; HeLa-vSINGRE5,7 days
same,time to decrease of mean GFP fluorescence to basal levels after drug removal,[1]; vSINGRE5-HeLa,one week
same,time for retrovector mRNA to return to baseline levels after dexamethasone withdrawal,vSINGRE5-HeLa cells,12 to 24 h
same,time at which full-length retrovector-derived mRNA was detectable,vSINGRE5-HeLa cells; [4],4 h
same,time of peak full-length retrovector-derived mRNA,vSINGRE5-HeLa cells; [4],48 h
same,time for fluorescence to return to baseline levels after dexamethasone removal from media,[2],7 days
